# Laboratory results taken from PubChem BioAssay AID1347076 (National Center for Advancing Translational Sciences (NCATS), 2019).
# The campaign covered roughly 400,000 compounds. About 13,000 (3.2%) were called active. Inconclusive results, whose numbers are uncertain, are shown with a selection of clear calls. The call rests on the fitted dose curve; in most records, active means well fitted cell-killing curve with a large enough effect; inconclusive means small, poorly fitted or top-dose-only effect, or effect the other way; inactive means flat fitted curve, though single readings scatter. Potencies of inconclusive entries are doubtful fits and often do not repeat.
# Assay: qHTS assay for MDR1-selective chemotherapeutics: Primary screen using the drug-selected MDR subline cells KB-V1; further: nearly all actives have a fitted effect of over 60% in size
# Settings: KB-V1 MDR cells viability, CellTiter-Glo, 72 h; series mostly up to 46.1 µM
# In short: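 Drug-selected KB-V1 cells, grown in DMEM lacking phenol red with 10% FBS, receive compound titrations; after three days at 37 degrees C, surviving cell ATP is quantified by CellTiter-Glo luminescence and responses normalized and curve-fitted.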
# Potency means the concentration at half of the fitted maximal effect.
row,SMILES,Potency
1,CCOC(=O)c1cnc2ccc(Cl)cc2c1N1CCN(C)CC1,"inconclusive: 7.31 µM [cytotoxic, partial curve, poor fit]"
2,O=C(O)c1ccc(N2C(=O)/C(=C/c3ccc(-c4ccc([N+](=O)[O-])cc4)o3)C=C2c2ccccc2)cc1,"inconclusive: 29.1 µM [cytotoxic, single point]"
3,CC(C)(C)c1ccc(C(=O)NNC(=O)c2ccccc2Br)cc1,"inconclusive: 18.4 µM [cytotoxic, single point]"
4,O=C(Nc1ccc2ccccc2c1)Nc1nnc(-c2ccc(O)cc2)s1,"inconclusive: 29.1 µM [rising, single point]"
5,O=C(NNC(=O)c1cccc(S(=O)(=O)N2CCN(c3ccccc3)CC2)c1)c1ccc(Cl)cc1,active: 16.4 µM
6,CCc1ccc(NC(=O)CSc2nnc(-c3cnccn3)n2Cc2ccco2)cc1,"inconclusive: 2.91 µM [cytotoxic, full curve]"
7,CN(C)C(=O)c1ccc(-c2nnc(NCc3ccccc3)c3ccccc23)cc1,"inconclusive: 5.8 µM [cytotoxic, partial curve]"
8,CCc1noc(C)c1C(=O)OCC(=O)N(C)c1c(N)n(Cc2ccccc2)c(=O)[nH]c1=O,"inconclusive: 32.6 µM [rising, single point]"
9,COc1ccccc1NC(=O)Nn1cnnc1,"inconclusive: 20.6 µM [rising, partial curve, poor fit]"
10,COc1ccc(S(=O)(=O)NC(C)(C)CO)cc1-c1nnc2c3ccccc3c(C)nn12,"inconclusive: 29.1 µM [rising, single point]"
11,Cc1cc(C)c(NC(=O)CNC(=O)COC(=O)/C=C/c2cccs2)c(C)c1,inactive
12,COc1ccc(CNC(=O)c2cc3cccc4c3n2CC(C)S4)cc1 (configuration not stated),inactive
13,CCOc1ccc(NC(=O)CSc2nc3ccccc3nc2N2CCOCC2)cc1,inactive
14,COc1ccc(/C=C2\CCc3ccccc3C2=O)cc1CN1CCOCC1,"inconclusive: 13 µM [cytotoxic, partial curve]"
15,Cc1nc2ccccc2n1CCc1nc2c3ccccc3nc(=S)n2[nH]1,inactive
16,O=C(Nc1nc(-c2ccc(S(=O)(=O)N3CCCCCC3)cc2)cs1)c1ccccc1,inactive
17,COc1cc(-c2cc3nc(NCc4ccco4)ccn3n2)cc(OC)c1OC,"inconclusive: 14.6 µM [cytotoxic, partial curve, poor fit]"
18,CCc1nc2c(OCc3ccccc3C(=O)OC)cccn2c1N(C)C(=O)c1cccc(OC)c1,"inconclusive: 2.59 µM [cytotoxic, full curve]"
19,O=C(c1cn(-c2ccccc2)nc1-c1cccs1)N1CCN(c2ccccn2)CC1,"inconclusive: 25.9 µM [cytotoxic, single point]"
20,CC1CCN(S(=O)(=O)c2ccc3nc(Nc4cccc(F)c4)ccc3c2)CC1,"inconclusive: 29.1 µM [cytotoxic, single point]"
21,Cc1ccc(-c2csc(N(C)C(=O)c3c(C)nn(-c4ccccc4)c3Cl)n2)cc1,"inconclusive: 20.6 µM [cytotoxic, single point]"
22,O=C(Nc1ccc(-c2ccccc2)cc1)c1ccccc1,inactive
23,COc1ccc(N2CCN(C(=O)CCNS(=O)(=O)c3cc(Br)cnc3N)CC2)cc1,inactive

# Pulled by compound from the entries so far, 2 records:
row,SMILES,Potency
10,COc1ccc(S(=O)(=O)NC(C)(C)CO)cc1-c1nnc2c3ccccc3c(C)nn12,"inconclusive: 29.1 µM [rising, single point]"
4,O=C(Nc1ccc2ccccc2c1)Nc1nnc(-c2ccc(O)cc2)s1,"inconclusive: 29.1 µM [rising, single point]"

# Next part.

row,SMILES,Potency
1,CC1Sc2ccc(C(=O)NCc3cccc(C(F)(F)F)c3)cc2NC1=O (configuration not stated),"inconclusive: 23.1 µM [cytotoxic, single point]"
2,O=C(NC(=O)c1cccc(F)c1)Nc1nc(-c2ccc(F)cc2)cc(C(F)(F)F)n1,inactive
3,COc1ccccc1N1CCN(C(=O)CN(Cc2ccccc2)S(C)(=O)=O)CC1,active: 10.3 µM
4,COc1ccc(OC)c(N(C)S(=O)(=O)c2ccc3c(c2)NC(=O)CC(=O)N3)c1,"inconclusive: 2.31 µM [rising, full curve, poor fit]"
5,Cc1cccc(OCCNc2ccc([N+](=O)[O-])cn2)c1,"inconclusive: 8.2 µM [cytotoxic, partial curve, poor fit]"
6,Cc1ccc(-c2cc(C(=O)N/N=C/c3c[nH]c4ccccc34)[nH]n2)cc1,active: 10.3 µM
7,COc1ccc(C)cc1NC1(c2ccccc2)C(=O)c2ccccc2C1=O,"inconclusive: 14.6 µM [rising, partial curve, poor fit]"
8,CCOc1ccc(CCNC(=O)CN2CCN(Cc3ccccc3C)C2=O)cc1OCC,"inconclusive: 11.6 µM [cytotoxic, partial curve]"
9,CCOCCOC(=O)c1[nH]c2c(c1C)C(=O)CC(c1cccs1)C2 (configuration not stated),active: 1.16 µM
10,CN(C)c1ccc(NC(=O)CC(NCc2cccnc2)C(=O)O)cc1 (configuration not stated),"inconclusive: 9.2 µM [rising, partial curve]"
11,Cc1nc(SCC(=O)N(CC(C)C)C2CCS(=O)(=O)C2)c2c(C)c(C)sc2n1 (configuration not stated),active: 3.66 µM
12,N#Cc1cnn2ccc(-c3ccc4c(c3)CCC4)nc12,"inconclusive: 18.4 µM [cytotoxic, single point]"
13,COc1cccc(/C=C/C(=C2/C(=O)N(c3ccccc3)N=C2C)c2ccc(C)cc2)c1OC,"inconclusive: 20.6 µM [cytotoxic, single point]"
14,COc1cccc(-c2cnc3c(NC(C)=O)cc(-c4ccsc4)cn23)c1,"inconclusive: 9.2 µM [cytotoxic, partial curve]"
15,O=c1c(-c2cc(-c3ccccc3)nc3c2COc2ccc(Cl)cc2-3)coc2ccccc12,"inconclusive: 29.1 µM [rising, single point]"
16,O=C(NCc1cccnc1)Nc1ccccc1C(F)(F)F,"inconclusive: 14.6 µM [cytotoxic, partial curve, poor fit]"
17,O=C(/C=C/c1ccccc1)NC(NC(=S)Nc1cc(Cl)ccc1Cl)C(Cl)(Cl)Cl (configuration not stated),"inconclusive: 18.4 µM [cytotoxic, single point]"
18,COc1cccc(OC)c1C(=O)Nn1c(C2CCC2)nc2ccccc2c1=O,inactive
19,Cc1c(OCC(=O)NCCN2CCOCC2)ccc2c1oc(=O)c1ccccc12,"inconclusive: 23.1 µM [cytotoxic, single point]"
20,CCCN(CCC)C(=O)CSc1nc2n[nH]c(C)c2c(=N)n1-c1ccc(OCC)cc1,"inconclusive: 20.6 µM [cytotoxic, single point]"
21,O=C(Nc1ccccc1Br)c1cc(=O)c2ccccc2o1,"inconclusive: 13 µM [cytotoxic, partial curve, poor fit]"
22,COCCCNC(=O)COc1ccc(S(=O)(=O)NCc2ccccc2)cc1Cl,active: 20.6 µM
23,CNc1c(NS(=O)(=O)c2cc(OC)ccc2OC)c(=O)oc2ccccc12,inactive

# Grouped by structure: those above with a CF3 group (3)
row,SMILES,Potency
1,CC1Sc2ccc(C(=O)NCc3cccc(C(F)(F)F)c3)cc2NC1=O (configuration not stated),"inconclusive: 23.1 µM [cytotoxic, single point]"
2,O=C(NC(=O)c1cccc(F)c1)Nc1nc(-c2ccc(F)cc2)cc(C(F)(F)F)n1,inactive
16,O=C(NCc1cccnc1)Nc1ccccc1C(F)(F)F,"inconclusive: 14.6 µM [cytotoxic, partial curve, poor fit]"

# Next compounds

row,SMILES,Potency
1,CCc1ccc2n(-c3ccc(OC)cc3)c([S-])c(C(=O)Nc3cc(C)cc(C)c3)[n+]2c1,inactive
2,C=CCn1c(COc2ccccc2)nnc1SCC(=O)N/N=C/c1cc(Cl)ccc1O,"inconclusive: 25.9 µM [cytotoxic, partial curve, poor fit]"
3,O=C(COC(=O)C1CCN(S(=O)(=O)c2ccc3c(c2)OCCO3)CC1)Nc1cc(C(F)(F)F)ccc1Cl,"inconclusive: 18.4 µM [rising, single point]"
4,CC(C)CCNC(=S)Nc1ccc(Br)cc1,active: 18.4 µM
5,Cc1ccc(-c2cnc(C3CC3)o2)cc1S(=O)(=O)Nc1ccc(F)cc1Cl,"inconclusive: 20.6 µM [cytotoxic, single point]"
6,Cc1cccc(NC(=O)CN2CCN(C(=O)c3cncn3-c3ccc(F)cc3)CC2)c1C,"inconclusive: 20.6 µM [rising, single point]"
7,Cc1cc(NC(=O)c2ccccc2F)cc(C)c1OCC(=O)N1CCOCC1,"inconclusive: 14.6 µM [cytotoxic, partial curve]"
8,COc1ccc(NC(=O)c2[nH]c(C)c(C(C)=O)c2C)cc1Cl,inactive
9,CC(C)c1c(C(=O)N/N=C/c2cccc3ccccc23)nnn1-c1nonc1N,"inconclusive: 29.1 µM [cytotoxic, single point]"
10,COC(=O)c1ccc(C(=O)OC)c(NC(=S)N2CCC(N3CCCCC3)CC2)c1,inactive
11,CC(=O)C[C@H](O)CC(=O)[C@H]1OC(=O)[C@@H](C)CCCCc2ccccc21,"inconclusive: 29.1 µM [rising, partial curve, poor fit]"
12,N#Cc1ccc(-c2cccnc2)nc1SCC(=O)Nc1sc2c(c1C#N)CCC2,inactive
13,C=CCn1c(-c2cccn(Cc3ccc(Cl)cc3)c2=O)n[nH]c1=S,"inconclusive: 20.6 µM [cytotoxic, single point]"
14,Cc1ccc(Sc2ncccc2C(=O)N(C)Cc2cccs2)c(C)c1,"inconclusive: 10.3 µM [cytotoxic, partial curve]"
15,CCCC(C)NC(=O)CSc1nc(-c2ccccc2)cn1N (configuration not stated),"inconclusive: 18.4 µM [cytotoxic, single point]"
16,COc1cc(CCC(=O)Nc2nnc(C)s2)cc(OC)c1OC,"inconclusive: 20.6 µM [cytotoxic, partial curve, poor fit]"
17,COc1cccc(C(=O)NCCc2sc(-c3cccc(C)c3)nc2C)c1,"inconclusive: 10.3 µM [cytotoxic, partial curve]"
18,CCOc1cc(S(=O)(=O)Nc2ccc(CC)cc2)ccc1Cl,active: 14.6 µM
19,Cc1cccc(C)c1NC(=O)c1cc(S(=O)(=O)N2CCCc3ccccc32)ccc1F,inactive
20,Cc1ccc(-c2cc(C(=O)N3CC(C)OC(C)C3)c3ccccc3n2)o1 (configuration not stated),"inconclusive: 18.4 µM [cytotoxic, single point]"
21,CCNc1nc(SCc2ccccc2)nc(N2CCOCC2)n1,"inconclusive: 23.1 µM [cytotoxic, single point]"
